According to PubChem BioAssay AID624297 (National Center for Advancing Translational Sciences (NCATS), 2012):
In all, about 340,000 compounds went through this assay and about 6,200 (1.8%) were called active. Inconclusive means that the source gave no clear call. Such entries were picked first, then a sample of the others. The call rests on the fitted dose curve; in most records, active means well fitted activation curve with a large enough effect; inconclusive means small, poorly fitted or top-dose-only effect; inactive means no such curve, though single readings can be large or run the other way. Potencies of inconclusive entries are doubtful fits and often do not repeat.

assay: A quantitative high throughput screen for small molecules that induce DNA re-replication in SW480 colon adenocarcinoma cells.; further: nearly all actives have a fitted effect of over 55% in size; on re-replication activation: % of control where 0% means no effect; conditions: Hoechst DNA content imaging, 48 h; re-replication activation: at 46.1 µM (top of the series) unless noted
Procedure, shortened: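 Per well, 250 cells were exposed to pinned compound for 48 hr. Nuclear DNA was visualised with Hoechst (40 min, 37 C) and total object intensity recorded by fluorescence scanning.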
Potency means the concentration at half of the fitted maximal effect.

Structure (SMILES) | Potency | re-replication activation
Cc1cc(C)cc(N2CC(O)=C(c3nc4ccccc4c(=O)[nH]3)C2=N)c1 | inconclusive: 29.1 µM [activator, single point] | 
CCOC(=O)c1c(C)[nH]c(C(=O)OCC(=O)c2ccc(OC)cc2OC)c1C | inconclusive: 29.1 µM [activator, partial curve, poor fit] | 
CCOc1ccc(NC(=S)N(CCc2c(C)[nH]c3ccc(C)cc23)Cc2ccncc2)cc1 | inconclusive: 23.1 µM [activator, single point] | 
Cc1ccccc1OCc1nnc(SC(C)C(=O)O)n1Cc1ccccc1 (configuration not stated) | inconclusive: 0.0651 µM [activator, full curve, poor fit] | 
Cc1cccc2cc3c(N)c(C(=O)Nc4ccc(N5CCOCC5)cc4)sc3nc12 | inactive | 
CCC(CC)c1nnc(NC(=O)c2c(C)nn(Cc3ccccc3Cl)c2C)s1 | inactive | 
Nc1nnnn1/N=C/c1cc(Cl)cc(Cl)c1O | inconclusive: 3.66 µM [activator, full curve] | 
CCN(CC)C(=S)SCC(=O)Nc1nc(-c2ccccc2)c(-c2ccccc2)o1 | inactive | 
O=C1CCCC/C=C\C[C@H](CC(=O)N(CCO)Cc2ccccc2)C(=O)N[C@@H](Cc2ccccc2)CO1 | inactive | 
Cc1c(CC(=O)N2CCN(C(=O)C3COc4ccccc4O3)CC2)c(=O)oc2cc(O)c(Cl)cc12 (configuration not stated) | inconclusive: 18.4 µM [activator, single point] | 
CC(C)(C)NC(=O)CN(C(=O)CSc1nnc(COc2ccccc2)o1)c1cccc(F)c1 | inconclusive: 2.06 µM [activator, partial curve] | 
CN(c1ccc(C(=O)N/N=C/c2cccc([N+](=O)[O-])c2)cc1)S(=O)(=O)c1ccccc1 | inconclusive: 18.4 µM [activator, single point] | 
Cc1nn(S(=O)(=O)c2cccs2)c(C)c1Sc1ccc([N+](=O)[O-])cc1 | inconclusive: 32.6 µM [activator, partial curve, poor fit] | 
COc1cc(C(=O)NCCCN(C)C)ccc1OCC(=O)Nc1cccc(C(F)(F)F)c1 | inconclusive: 18.4 µM [activator, single point] | 
COc1ccc(-c2cc(-c3ccc(N)cc3)nc(N)c2C#N)cc1OC | active: 23.1 µM | 
O=C1C=C(c2ccccc2C(F)(F)F)C[C@@H](c2ccc3c(c2)OCO3)C1 | inactive | 
COc1ccc(NC(=O)c2ccc(F)cc2)cc1S(=O)(=O)Nc1cc(C)ccc1Br | inconclusive: 29.1 µM [activator, single point] | 
Cc1ccn(CC(=O)N2CCCC(N3CCN(c4cccc(Cl)c4)CC3)C2)n1 (configuration not stated) | inconclusive: 20.6 µM [activator, single point] | 
Cc1ccc(CNC(=O)Cc2ccc(NC3=NC4CS(=O)(=O)CC4S3)cc2)cc1 (configuration not stated) | inactive | 
CC(Cc1ccccc1)NC(=O)/C=C/c1ccc([N+](=O)[O-])cc1 (configuration not stated) | inactive | 
Cc1ccc(C)c(C(=O)Cn2ncc(Cl)c(Cl)c2=O)c1 | inconclusive: 23.1 µM [activator, single point] | 

Record cards, from the list above.
CCOC(=O)c1c(C)[nH]c(C(=O)OCC(=O)c2ccc(OC)cc2OC)c1C is listed with Potency: inconclusive: 29.1 µM [activator, partial curve, poor fit]
Cc1ccn(CC(=O)N2CCCC(N3CCN(c4cccc(Cl)c4)CC3)C2)n1 (configuration not stated) is listed with Potency: inconclusive: 20.6 µM [activator, single point]

Continuation:

Structure (SMILES) | Potency | re-replication activation
Fc1ccc(-[n+]2nc(Nc3ccccc3)sc2-c2c(Cl)cccc2Cl)cc1 |  | inactive: -44.4% [at 9.22 µM]
Cc1cc(Cc2ccc(N)c(C)c2)ccc1N | inactive | 
COc1ccc(/C(C)=N/NC(=O)Cc2ccc(Cl)cc2)cc1 | inconclusive: 32.6 µM [activator, single point] | 
CC(C)(C)C(=O)NC(=S)NNC(=O)c1sc2ccccc2c1Cl | inconclusive: 18.4 µM [activator, partial curve] | 
Cc1cc(C)cc(SCc2noc(C(=O)NC(C)C)c2C(=O)NC(C)C)c1 | inactive | 
O=C(O)C1CCN(Cc2oc(CO)cc(=O)c2O)C1 (configuration not stated) | inconclusive: 0.0046 µM [activator, full curve, poor fit] | 
CN(C)c1ccc(C(=O)/C=C/c2ccc(Br)cc2)cc1 | inconclusive: 29.1 µM [activator, single point] | 
Cc1ccc(/C=C/C(=O)Nc2sc(C)c(C)c2C(=O)OC(C)C)o1 | inconclusive: 20.6 µM [activator, single point] | 
CCS(=O)(=O)N1N=C(c2cccs2)CC1c1cc2cc(C)ccc2nc1Cl (configuration not stated) | inconclusive: 0.82 µM [activator, partial curve, poor fit] | 
COc1ccc2c(c1)[C@H]1[C@H](CO2)[C@H](c2ccccc2)[C@]2(C)C(=O)Nc3ccc(F)cc3C(=O)N12 | inconclusive: 29.1 µM [activator, single point] | 
Cc1cc(CN(C)C(=O)CCc2nnc(Cc3cccc(C(F)(F)F)c3)o2)on1 | inconclusive: 6.51 µM [activator, single point] | 
O=C(Nc1ccc(Cl)c(Cl)c1)C1C2C=CC3(O2)C1C(=O)N(CCN1CCCCC1)C3C(=O)NC1CCCCC1 (configuration not stated) | inconclusive: 20.6 µM [activator, single point] | 
Cc1cc(-c2nnc(SCC(=O)N3C(C)CCCC3C)o2)no1 (configuration not stated) | active: 6.51 µM | 
CCCn1c(N)c(C(=O)CSc2nnc(Cc3cccs3)n2C2CC2)c(=O)n(C)c1=O | inactive | 
CCOC(=O)CSc1c(-c2cccs2)[nH]c2ccccc12 | inconclusive: 23.1 µM [activator, single point] | 
CCCCCCCNC1=CC(=O)CC(c2ccccc2)C1 (configuration not stated) | inconclusive: 29.1 µM [activator, single point] | 
Cc1csc(SCC(=O)Nc2sc3c(c2C#N)CCC3)n1 | inconclusive: 29.1 µM [activator, partial curve, poor fit] | 
Cc1ccc2c(c1)C(=O)C(=O)N2Cc1ccc(F)cc1 | inconclusive: 4.61 µM [activator, full curve, poor fit] | 
COc1ccc(OC)c(NC(=O)CSC2=C(C#N)C(c3ccco3)C3=C(CCCC3=O)N2)c1 (configuration not stated) | active: 16.4 µM | 
O=C1C=C(N2CCCCC2)c2ccccc2C1=O | active: 3.26 µM | 
CC(=O)c1c(C)[nH]c(C(=O)Nc2cccc(C)n2)c1C | inconclusive: 4.61 µM [activator, full curve, poor fit] | 
